Measurements from paper doi:10.1101/2021.05.22.445289.
These are yes or no findings as the source states them, for the method shown. Binding seen in cells or lysates may run through a third protein. Some results given as binding are weak or reduced against the parent protein; the word gives no strength. Sequences can lack the tags named with a protein. One block for each binder: values may come before it.

Protein sequences, listed by entry. Tags and fused reporters are not part of them.
UniProt P15409: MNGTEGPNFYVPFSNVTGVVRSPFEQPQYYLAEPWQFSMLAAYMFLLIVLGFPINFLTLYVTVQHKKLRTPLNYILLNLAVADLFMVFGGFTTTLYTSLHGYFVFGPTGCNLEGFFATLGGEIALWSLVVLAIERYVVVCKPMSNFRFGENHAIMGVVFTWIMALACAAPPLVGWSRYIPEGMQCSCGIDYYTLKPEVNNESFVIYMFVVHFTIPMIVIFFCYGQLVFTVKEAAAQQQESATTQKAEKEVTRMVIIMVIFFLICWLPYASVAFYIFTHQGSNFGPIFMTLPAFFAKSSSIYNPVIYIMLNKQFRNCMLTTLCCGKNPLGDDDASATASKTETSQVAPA

Tests used:
Test in all cases: pull-down
HA-tagged rhodopsin = HA-tagged rhodopsin (UniProt P15409)
[1] = target: T1, 3xFlag-TST (Twin-Strep-tag)-tagged Tmem138 (mouse) (UniProt Q9D6G5)
T1 sequence: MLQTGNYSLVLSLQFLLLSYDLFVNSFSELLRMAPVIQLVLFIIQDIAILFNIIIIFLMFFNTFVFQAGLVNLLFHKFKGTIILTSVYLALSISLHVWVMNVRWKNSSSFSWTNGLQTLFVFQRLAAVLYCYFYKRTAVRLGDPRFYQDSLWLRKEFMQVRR

[2] = target: T2, Ahi1 (HA- or Flag-tagged) (UniProt Q8K3E5)
T2 sequence: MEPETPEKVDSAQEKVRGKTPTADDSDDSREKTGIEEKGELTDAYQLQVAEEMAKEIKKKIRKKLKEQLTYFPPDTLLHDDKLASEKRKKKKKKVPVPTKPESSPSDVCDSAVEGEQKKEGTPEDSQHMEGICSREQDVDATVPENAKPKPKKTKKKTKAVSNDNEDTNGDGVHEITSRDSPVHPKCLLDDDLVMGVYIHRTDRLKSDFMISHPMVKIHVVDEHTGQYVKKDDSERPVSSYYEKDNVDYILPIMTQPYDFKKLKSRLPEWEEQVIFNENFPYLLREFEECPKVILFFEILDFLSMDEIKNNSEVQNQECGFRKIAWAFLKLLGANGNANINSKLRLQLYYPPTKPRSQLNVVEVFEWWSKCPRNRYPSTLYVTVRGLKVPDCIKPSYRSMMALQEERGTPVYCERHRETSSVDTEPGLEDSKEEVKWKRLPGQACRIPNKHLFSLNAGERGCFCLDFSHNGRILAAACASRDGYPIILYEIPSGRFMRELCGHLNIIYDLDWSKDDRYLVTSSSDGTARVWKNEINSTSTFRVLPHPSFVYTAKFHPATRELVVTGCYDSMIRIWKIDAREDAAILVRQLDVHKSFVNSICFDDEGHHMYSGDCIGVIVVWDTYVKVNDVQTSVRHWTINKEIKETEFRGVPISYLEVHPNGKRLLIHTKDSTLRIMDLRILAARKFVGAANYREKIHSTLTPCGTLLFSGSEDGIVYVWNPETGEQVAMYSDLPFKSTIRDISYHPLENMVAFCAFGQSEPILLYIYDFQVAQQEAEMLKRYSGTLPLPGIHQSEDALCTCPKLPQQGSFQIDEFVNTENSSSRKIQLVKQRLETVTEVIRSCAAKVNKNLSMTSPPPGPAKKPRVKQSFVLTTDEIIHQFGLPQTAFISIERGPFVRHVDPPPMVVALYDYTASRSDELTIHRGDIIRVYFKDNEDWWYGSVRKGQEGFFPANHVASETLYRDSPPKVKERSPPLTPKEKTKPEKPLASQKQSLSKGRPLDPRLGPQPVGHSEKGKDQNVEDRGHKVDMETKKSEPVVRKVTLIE

- binding (HA-tagged rhodopsin): binds
B1: 3xFlag-TST (Twin-Strep-tag)-tagged Tmem138 (protein, UniProt Q9D6G5 1-162)
chain: T1 sequence

- binding [1]: binds
- binding (HA-tagged rhodopsin): no binding
B2: Ahi1 (HA- or Flag-tagged) (protein, UniProt Q8K3E5 1-1047)
chain: T2 sequence

More lines, now with the values behind:

B3: Tmem231 (HA- or Flag-tagged) (protein, UniProt Q3U284 1-315)
chain: MALYHLFSHPIERAYRAGLCSKAALFLLLTTALTYIPPLLVAFRSHGFWLKRSSYEEQPNVRFQHQVLLVALLGPEPEAFLAWSTFPTFNRLQGAHLRVPLVSSREEDRNQDGKMDVLYFKLELPLQPTEHVLGVQLILTFSYQLHRMSTFEMQSMAFLQSSFAVPGSQLYVNGDLRLQQKQPLSYRGLDIRYNVSVINGTSPFAQDYDLTHIVAAYQERNVTTVLSDPNPIWLVGRAAEAPFVIHAVIRYPTEVISYQPGFWEMIKFAWIQYVSILLIFLWVFERIKIFVFQNQVVTSIPVAVPQGEIRKEHLS
- binding [1]: binds
- binding (HA-tagged rhodopsin): binds
- binding [2]: no binding

B4: Tmem67-Flag (protein, UniProt Q8BR76 37-992)
chain: QIFSFPFRRPETCDFNQYFDISALSCAPCGANQRRDALGTSCVCLPGYHMISNNGGPSIICKKCPENMKGVTKDGWDCISCPSGLTAEGKCHCPTGHILVERNVSGSLLAQATCELCDESENSFTKANALGTRCVRCEPTFVNTSRSCSCSEPHTLTGGLCFSNTGNFHQRVISTARYGELGMSLNSEWFAKYLQATAAACWTHANLTSCQALGNMCVMNMNSYDSTTLDACRLFHYIFESTAGLISVHSVPFWRQNLPWLFYGDQPGLAPQVLSTTPLPTNFSFKGQNQLKFVAASYDIRGNFIKWQPLEGGVLQLCPDTERRLDAAYAFGTTYQQNCEISLSKLLVDFSSPVFYDVYLEYTDEEQHRYLWPIPVLNLNLQHNKLFVNQDSSSSKWLLTRRIFLVDAVSGRENDLGNQPRVIRVATQISLSIRLVPNTKNGNIYTPLLTIAYSDIDIKNAHSQSAKISFSVKYEMNQGDASVHTDIALGVLGGLAVLSSLLKTAGWKRRVGSPMIDLQTVMKFLLYYAGDLANVFFIITVGTGLYWLIFFKAQKSVSVLLPMPVQEERFVTYVGCAFAMKALQFLHKFISQISIDIFFIDWERPKGKVLKAVEGEGGVRSATVPVSIWRTYFVANEWNEIQTVRKINPLFQVLTTLFFLEVVGFKNLALMDSSSSLSRNPSDYTAPYSRILRYAVATAIWLVIGIIQVVFFAAFYERFIEDKIRQFVDLCSMSNVSVFLLSHRCFGYYIHGRSVHGHADTNMEEMNMNLKREAENLCSQRGLVPNTDGQTFQIAVSSQMRQHYDRIHETLTRRNGPARLLSSSGSTFEQSIKAYHAMNKFLGSFIDHVHKEMDYFIKDKLLLERILGMEFMEPMEKSIFYNDEGHSFSSVLYYGNEATLLIFDLLFFCVVDLACQDFVLASFLTYLQQEIFRFIRNTVGQKNLATKTLVDERFLI
- binding [1]: no binding
